The text below walks through data of publication PMC8062632, “Structural studies of phosphorylation-dependent interactions between the V2R receptor and arrestin-2” (Nature Communications, 2021).

This data set deals with arrestin2-Phospho-peptide-Fab30 complex. The settings on record: pH 7.5.
`CC(C)C[C@H](NC(=O)[C@H](COP(=O)(O)O)NC(=O)[C@@H]1CCCN1C(=O)[C@@H]1CCCN1C(=O)[C@@H](NC(=O)[C@H](CCCNC(=N)N)NC(=O)CNC(=O)[C@H](CCCNC(=N)N)NC(=O)[C@H](C)N)[C@@H](C)O)C(=O)NCC(=O)N1CCC[C@H]1C(=O)N[C@@H](CCC(N)=O)C(=O)N[C@@H](CC(=O)O)C(=O)N[C@@H](CCC(=O)O)C(=O)N[C@@H](COP(=O)(O)O)C(=O)N[C@@H](CS)C(=O)N[C@H](C(=O)N[C@H](C(=O)N[C@@H](C)C(=O)N[C@@H](COP(=O)(O)O)C(=O)N[C@@H](COP(=O)(O)O)C(=O)N[C@@H](COP(=O)(O)O)C(=O)N[C@@H](CC(C)C)C(=O)N[C@@H](C)C(=O)N[C@@H](CCCCN)C(=O)N[C@@H](CC(=O)O)C(=O)N[C@H](C(=O)N[C@@H](CO)C(=O)N[C@@H](CO)C(=O)O)[C@@H](C)O)[C@@H](C)OP(=O)(O)O)[C@@H](C)OP(=O)(O)O` [V2Rpp-1]: the “ΔTm (melting temperature shift caused by Fab 30 incubation)” value worked out at 11.81 °C.

Take `CC(C)C[C@H](NC(=O)[C@H](COP(=O)(O)O)NC(=O)[C@@H]1CCCN1C(=O)[C@@H]1CCCN1C(=O)[C@@H](NC(=O)[C@H](CCCNC(=N)N)NC(=O)CNC(=O)[C@H](CCCNC(=N)N)NC(=O)[C@H](C)N)[C@@H](C)OP(=O)(O)O)C(=O)NCC(=O)N1CCC[C@H]1C(=O)N[C@@H](CCC(N)=O)C(=O)N[C@@H](CC(=O)O)C(=O)N[C@@H](CCC(=O)O)C(=O)N[C@@H](CO)C(=O)N[C@@H](CS)C(=O)N[C@H](C(=O)N[C@H](C(=O)N[C@@H](C)C(=O)N[C@@H](COP(=O)(O)O)C(=O)N[C@@H](COP(=O)(O)O)C(=O)N[C@@H](COP(=O)(O)O)C(=O)N[C@@H](CC(C)C)C(=O)N[C@@H](C)C(=O)N[C@@H](CCCCN)C(=O)N[C@@H](CC(=O)O)C(=O)N[C@H](C(=O)N[C@@H](CO)C(=O)N[C@@H](CO)C(=O)O)[C@@H](C)O)[C@@H](C)OP(=O)(O)O)[C@@H](C)OP(=O)(O)O` [V2Rpp-3]: the “ΔTm (melting temperature shift caused by Fab 30 incubation)” value was found to be 12.20 °C.

Take `CC(C)C[C@H](NC(=O)[C@H](COP(=O)(O)O)NC(=O)[C@@H]1CCCN1C(=O)[C@@H]1CCCN1C(=O)[C@@H](NC(=O)[C@H](CCCNC(=N)N)NC(=O)CNC(=O)[C@H](CCCNC(=N)N)NC(=O)[C@H](C)N)[C@@H](C)OP(=O)(O)O)C(=O)NCC(=O)N1CCC[C@H]1C(=O)N[C@@H](CCC(N)=O)C(=O)N[C@@H](CC(=O)O)C(=O)N[C@@H](CCC(=O)O)C(=O)N[C@@H](COP(=O)(O)O)C(=O)N[C@@H](CS)C(=O)N[C@H](C(=O)N[C@H](C(=O)N[C@@H](C)C(=O)N[C@@H](COP(=O)(O)O)C(=O)N[C@@H](COP(=O)(O)O)C(=O)N[C@@H](COP(=O)(O)O)C(=O)N[C@@H](CC(C)C)C(=O)N[C@@H](C)C(=O)N[C@@H](CCCCN)C(=O)N[C@@H](CC(=O)O)C(=O)N[C@H](C(=O)N[C@@H](CO)C(=O)N[C@@H](CO)C(=O)O)[C@@H](C)O)[C@@H](C)O)[C@@H](C)OP(=O)(O)O` [V2Rpp-4]: the “ΔTm (melting temperature shift caused by Fab 30 incubation)” value came to 4.21 °C.

`CC(C)C[C@H](NC(=O)[C@H](COP(=O)(O)O)NC(=O)[C@@H]1CCCN1C(=O)[C@@H]1CCCN1C(=O)[C@@H](NC(=O)[C@H](CCCNC(=N)N)NC(=O)CNC(=O)[C@H](CCCNC(=N)N)NC(=O)[C@H](C)N)[C@@H](C)OP(=O)(O)O)C(=O)NCC(=O)N1CCC[C@H]1C(=O)N[C@@H](CCC(N)=O)C(=O)N[C@@H](CC(=O)O)C(=O)N[C@@H](CCC(=O)O)C(=O)N[C@@H](COP(=O)(O)O)C(=O)N[C@@H](CS)C(=O)N[C@H](C(=O)N[C@H](C(=O)N[C@@H](C)C(=O)N[C@@H](COP(=O)(O)O)C(=O)N[C@@H](CO)C(=O)N[C@@H](CO)C(=O)N[C@@H](CC(C)C)C(=O)N[C@@H](C)C(=O)N[C@@H](CCCCN)C(=O)N[C@@H](CC(=O)O)C(=O)N[C@H](C(=O)N[C@@H](CO)C(=O)N[C@@H](CO)C(=O)O)[C@@H](C)O)[C@@H](C)OP(=O)(O)O)[C@@H](C)OP(=O)(O)O` [V2Rpp-6-7]: the “ΔTm (melting temperature shift caused by Fab 30 incubation)” value is 3.19 °C.
